Source: PubChem BioAssay AID1671195 (Yale University, 2021)

Purpose: 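Regulators of LDL receptor activity judged by labelled LDL uptake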 (primary screen)
Cells: human Huh7 hepatoma cells
Reagent: siRNA pool against human genes, 18 nM
Timing: about 2 to 2.5 days of knockdown, then 8 h LDL uptake
Treatment: DiI-labelled LDL at 30 µg/ml for 8 h, in lipoprotein-deficient serum medium
Read-out: 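Fluorescent LDL signal imaged in cells, scaled to the plate median, robust z-score for each replicate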
Scale: robust z-score: higher = more LDL uptake after knockdown
Rule for the call: 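Active when two or more replicates show a robust z-score above 2 or below -2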
Here is an unselected part of about 22,000 reagents tested. Of all reagents, about 1,510 (6.9%) got an active call. 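Active includes knockdowns raising or lowering LDL uptake; positive z-scores mean more uptake, negative mean less.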

no.	Gene	robust z-score, replicate 1	robust z-score, replicate 2	robust z-score, replicate 3	call
1	LOC402031 (retired record)	-0.871	0.175	0.882	inactive
2	NCBP1 (nuclear cap binding protein subunit 1)	-0.626	-0.557	-0.229	inactive
3	RPP38-DT (RPP38 divergent transcript)	1.16	0.58	0.687	inactive
4	TBX1 (T-box transcription factor 1)	0.616	1.59	1.2	inactive
5	LOC400099 (retired record)	0.265	-0.348	-0.423	inactive
6	MIIP (migration and invasion inhibitory protein)	0.356	0.625	0.502	inactive
7	CARD9 (caspase recruitment domain family member 9)	-1.68	-2.04	-1.79	inactive
8	RPL7AP27 (ribosomal protein L7a pseudogene 27)	-0.269	-0.19	-0.72	inactive
9	GOLGA2P9 (GOLGA2 pseudogene 9)	-1.15	-1.17	-1.5	inactive
10	LOC220998 (retired record)	-0.319	-0.0901	-0.299	inactive
11	WNT2B (Wnt family member 2B)	0.211	-0.223	-0.881	inactive
12	DDX21 (DExD-box helicase 21)	-0.667	0.245	0.00366	inactive
13	UNC13A (unc-13 homolog A)	0.744	1.16	0.74	inactive
14	SOAT1 (sterol O-acyltransferase 1)	-0.0356	0.603	0.777	inactive
15	ZZEF1 (zinc finger ZZ-type and EF-hand domain containing 1)	1.48	-1.19	0.935	inactive
16	TPP1 (tripeptidyl peptidase 1)	-0.519	-0.265	-0.938	inactive
17	LINC02902 (long independently transcribed non-coding RNA 2902)	0.00126	-0.787	0.000804	inactive
18	RPL12 (ribosomal protein L12)	-1.75	-1.74	-1.18	inactive
19	NOC2L (NOC2 like nucleolar associated transcriptional repressor)	-1.17	-0.726	-0.776	inactive
20	LRCH4	-0.0867	-0.375	-1.1	inactive
21	HERC3 (HECT and RLD domain containing E3 ubiquitin protein ligase 3)	-1.43	-1.23	-1.2	inactive
22	PDE2A (phosphodiesterase 2A)	-0.312	-1.29	-1.32	inactive
23	FLT3 (fms related receptor tyrosine kinase 3)	0.345	1.36	2.13	inactive
24	ASIC1 (acid sensing ion channel subunit 1)	0.76	0.441	0.597	inactive
25	KANSL2 (KAT8 regulatory NSL complex subunit 2)	-1.11	-1.2	-0.329	inactive

Reformatted: entries from further up
RPL12 (ribosomal protein L12) — robust z-score, replicate 1 = -1.75; robust z-score, replicate 2 = -1.74; robust z-score, replicate 3 = -1.18; call = inactive
NOC2L (NOC2 like nucleolar associated transcriptional repressor) — robust z-score, replicate 1 = -1.17; robust z-score, replicate 2 = -0.726; robust z-score, replicate 3 = -0.776; call = inactive
LRCH4 — robust z-score, replicate 1 = -0.0867; robust z-score, replicate 2 = -0.375; robust z-score, replicate 3 = -1.1; call = inactive
HERC3 (HECT and RLD domain containing E3 ubiquitin protein ligase 3) — robust z-score, replicate 1 = -1.43; robust z-score, replicate 2 = -1.23; robust z-score, replicate 3 = -1.2; call = inactive

The results go on.
no.	Gene	robust z-score, replicate 1	robust z-score, replicate 2	robust z-score, replicate 3	call
26	LOC441071 (retired record)	-0.328	-0.408	-0.456	inactive
27	CLASP1 (cytoplasmic linker associated protein 1)	0.624	-0.533	0.307	inactive
28	LOC285435 (retired record)	-0.748	-0.684	-0.788	inactive
29	GK5 (glycerol kinase 5)	-0.952	-0.911	-0.944	inactive
30	RNF169 (ring finger protein 169)	-0.256	-0.0368	-0.14	inactive
31	GYS2 (glycogen synthase 2)	0.76	-0.147	0.966	inactive
32	SNRNP200 (small nuclear ribonucleoprotein U5 subunit 200)	0.294	-0.00948	0.488	inactive
33	LOC389703 (retired record)	-0.735	-0.827	-0.503	inactive
34	TPM2 (tropomyosin 2)	2.47	0.537	4.91	active
35	LOC387974 (retired record)	1.18	1.02	0.913	inactive
36	CREBL2 (cAMP responsive element binding protein like 2)	-0.303	-0.888	-1.55	inactive
37	LOC440381 (retired record)	1.35	1.74	1.47	inactive
38	KCNJ15 (potassium inwardly rectifying channel subfamily J member 15)	1.09	0.322	0.936	inactive
39	SLC20A1	0.489	1.72	2.11	inactive
40	EPPK1 (epiplakin 1)	-1.52	-0.6	-1.83	inactive
41	IBSP (integrin binding sialoprotein)	-1.1	-0.72	-0.909	inactive
42	ZNF671 (zinc finger protein 671)	1.25	0.761	1.08	inactive
43	TEKT4 (tektin 4)	-1.31	-2.09	-1.14	inactive
44	SHROOM1 (shroom family member 1)	0.497	0.368	0.905	inactive
45	CCNB2 (cyclin B2)	-0.378	0.715	-0.325	inactive
46	TMEM63B (transmembrane protein 63B)	-0.574	-0.648	-0.35	inactive
47	ENKD1 (enkurin domain containing 1)	-0.447	-0.282	-1.1	inactive
48	LILRB5 (leukocyte immunoglobulin like receptor B5)	2.22	0.31	1.39	inactive
49	MCM9	-0.337	-0.282	-0.484	inactive
50	KIR2DL4	-1.23	-1.28	-1.04	inactive
51	MT1H (metallothionein 1H)	0.966	-0.89	0.271	inactive
52	CCNL2 (cyclin L2)	1.57	1.95	1.32	inactive
53	BPIFB1 (BPI fold containing family B member 1)	-0.464	0.14	0.00165	inactive
54	DGAT2L6 (diacylglycerol O-acyltransferase 2 like 6)	-0.322	-0.526	-0.502	inactive
55	ISCA2 (iron-sulfur cluster assembly 2)	-0.733	-0.953	-0.646	inactive
56	OPN5 (opsin 5)	-1.65	-1.84	-1.77	inactive
57	CRAT (carnitine O-acetyltransferase)	0.478	0.616	0.331	inactive
58	HSD17B11 (hydroxysteroid 17-beta dehydrogenase 11)	0.144	0.433	0.314	inactive
59	TLR6 (toll like receptor 6)	0.158	0.655	-1.09	inactive
60	EPHX2 (epoxide hydrolase 2)	-1.25	-0.704	-0.965	inactive
61	COPS7A (COP9 signalosome subunit 7A)	0.547	-0.493	0.378	inactive
62	ZNF579 (zinc finger protein 579)	0.0348	0.0178	0.284	inactive
63	PTBP1 (polypyrimidine tract binding protein 1)	-0.918	-0.563	-0.777	inactive
64	HSPA5 (heat shock protein family A (Hsp70) member 5)	-0.556	-0.456	-0.167	inactive
65	LINC01558 (long intergenic non-protein coding RNA 1558)	0.562	0.631	-0.91	inactive
66	CNN3-DT (CNN3 divergent transcript)	0.992	0.838	1.14	inactive
67	MCMDC2 (minichromosome maintenance domain containing 2)	0.165	1.64	0.449	inactive
68	PDE6C (phosphodiesterase 6C)	-1.75	-1.15	-1.66	inactive
